# Data from the supplement of paper PMC10849652.
# Sequences of proteins named here, by UniProt entry; tags and fusion partners are left off. A change or cut given only in a name is not applied to a line headed by its entry.
# UniProt Q8N3C7: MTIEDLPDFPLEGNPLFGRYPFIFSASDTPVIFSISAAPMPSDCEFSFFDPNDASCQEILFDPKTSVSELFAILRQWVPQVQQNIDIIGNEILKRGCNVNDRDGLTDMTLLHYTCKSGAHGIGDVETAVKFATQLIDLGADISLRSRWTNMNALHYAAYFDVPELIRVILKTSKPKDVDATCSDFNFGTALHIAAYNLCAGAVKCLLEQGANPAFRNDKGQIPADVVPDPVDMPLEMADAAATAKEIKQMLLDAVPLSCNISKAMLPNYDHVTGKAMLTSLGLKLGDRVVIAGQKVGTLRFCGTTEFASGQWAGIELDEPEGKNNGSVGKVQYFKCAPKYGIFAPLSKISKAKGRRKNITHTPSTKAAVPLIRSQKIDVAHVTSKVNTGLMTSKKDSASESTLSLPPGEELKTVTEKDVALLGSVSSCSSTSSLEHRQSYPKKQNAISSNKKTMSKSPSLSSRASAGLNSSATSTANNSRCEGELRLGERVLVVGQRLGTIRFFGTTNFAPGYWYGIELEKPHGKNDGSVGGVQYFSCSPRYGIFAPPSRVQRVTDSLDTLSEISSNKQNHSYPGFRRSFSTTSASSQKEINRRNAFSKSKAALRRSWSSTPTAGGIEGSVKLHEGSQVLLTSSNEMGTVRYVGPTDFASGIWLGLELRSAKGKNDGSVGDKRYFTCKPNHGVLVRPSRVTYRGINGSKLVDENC
# UniProt P09496: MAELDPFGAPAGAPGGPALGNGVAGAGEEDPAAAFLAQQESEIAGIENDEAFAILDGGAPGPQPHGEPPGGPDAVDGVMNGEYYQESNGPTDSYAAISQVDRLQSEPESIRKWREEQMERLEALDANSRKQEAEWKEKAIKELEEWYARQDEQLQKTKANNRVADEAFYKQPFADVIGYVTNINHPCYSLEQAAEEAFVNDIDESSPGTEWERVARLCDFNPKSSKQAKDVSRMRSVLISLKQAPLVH
# UniProt Q86X95: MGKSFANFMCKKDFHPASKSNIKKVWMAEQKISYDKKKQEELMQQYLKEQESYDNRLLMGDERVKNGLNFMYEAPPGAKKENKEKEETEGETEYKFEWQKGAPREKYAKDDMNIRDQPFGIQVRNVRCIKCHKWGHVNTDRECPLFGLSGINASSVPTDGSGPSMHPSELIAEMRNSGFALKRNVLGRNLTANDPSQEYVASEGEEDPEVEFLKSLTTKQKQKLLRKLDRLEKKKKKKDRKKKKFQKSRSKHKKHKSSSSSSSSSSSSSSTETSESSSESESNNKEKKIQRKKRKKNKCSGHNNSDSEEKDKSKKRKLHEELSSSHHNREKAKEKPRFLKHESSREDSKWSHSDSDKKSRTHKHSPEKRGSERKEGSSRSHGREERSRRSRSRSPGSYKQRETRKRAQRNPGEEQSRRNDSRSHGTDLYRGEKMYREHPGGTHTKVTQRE
# UniProt Q8IZR5: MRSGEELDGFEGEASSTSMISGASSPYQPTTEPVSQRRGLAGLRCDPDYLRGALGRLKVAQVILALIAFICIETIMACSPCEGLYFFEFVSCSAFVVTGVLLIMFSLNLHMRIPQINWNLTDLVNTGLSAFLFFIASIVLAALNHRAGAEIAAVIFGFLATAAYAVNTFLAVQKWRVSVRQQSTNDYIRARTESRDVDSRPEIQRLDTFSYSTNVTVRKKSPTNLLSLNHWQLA
# UniProt O96005: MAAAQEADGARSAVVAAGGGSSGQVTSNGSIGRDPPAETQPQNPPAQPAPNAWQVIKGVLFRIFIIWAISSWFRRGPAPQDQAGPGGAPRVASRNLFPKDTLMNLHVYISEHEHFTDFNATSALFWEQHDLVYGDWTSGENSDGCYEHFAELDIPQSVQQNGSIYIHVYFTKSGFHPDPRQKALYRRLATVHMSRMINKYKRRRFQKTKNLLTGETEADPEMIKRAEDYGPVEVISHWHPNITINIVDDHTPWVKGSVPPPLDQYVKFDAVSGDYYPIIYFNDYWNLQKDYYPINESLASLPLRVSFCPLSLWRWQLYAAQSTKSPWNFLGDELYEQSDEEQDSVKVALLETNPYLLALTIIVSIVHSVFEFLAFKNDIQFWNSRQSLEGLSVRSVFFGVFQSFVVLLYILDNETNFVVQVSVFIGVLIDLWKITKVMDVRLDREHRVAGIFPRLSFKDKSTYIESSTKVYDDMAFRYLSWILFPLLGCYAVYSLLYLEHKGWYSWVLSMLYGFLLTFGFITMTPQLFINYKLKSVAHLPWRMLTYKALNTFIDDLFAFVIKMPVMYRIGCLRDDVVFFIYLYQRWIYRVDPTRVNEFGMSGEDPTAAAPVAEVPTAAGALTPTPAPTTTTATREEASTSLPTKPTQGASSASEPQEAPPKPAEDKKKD
# UniProt P56277: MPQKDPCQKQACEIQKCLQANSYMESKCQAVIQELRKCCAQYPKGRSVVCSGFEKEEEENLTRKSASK
# UniProt Q8NCH0: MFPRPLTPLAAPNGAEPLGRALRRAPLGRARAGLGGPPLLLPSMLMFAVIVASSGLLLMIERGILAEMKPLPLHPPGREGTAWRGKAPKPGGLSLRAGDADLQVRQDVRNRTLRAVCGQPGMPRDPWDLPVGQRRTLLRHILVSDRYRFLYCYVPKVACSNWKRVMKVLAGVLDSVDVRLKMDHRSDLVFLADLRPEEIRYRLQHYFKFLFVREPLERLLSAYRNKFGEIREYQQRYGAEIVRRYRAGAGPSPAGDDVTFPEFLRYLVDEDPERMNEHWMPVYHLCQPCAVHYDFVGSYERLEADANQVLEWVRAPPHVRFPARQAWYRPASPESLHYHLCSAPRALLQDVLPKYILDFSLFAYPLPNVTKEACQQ
# UniProt P49759: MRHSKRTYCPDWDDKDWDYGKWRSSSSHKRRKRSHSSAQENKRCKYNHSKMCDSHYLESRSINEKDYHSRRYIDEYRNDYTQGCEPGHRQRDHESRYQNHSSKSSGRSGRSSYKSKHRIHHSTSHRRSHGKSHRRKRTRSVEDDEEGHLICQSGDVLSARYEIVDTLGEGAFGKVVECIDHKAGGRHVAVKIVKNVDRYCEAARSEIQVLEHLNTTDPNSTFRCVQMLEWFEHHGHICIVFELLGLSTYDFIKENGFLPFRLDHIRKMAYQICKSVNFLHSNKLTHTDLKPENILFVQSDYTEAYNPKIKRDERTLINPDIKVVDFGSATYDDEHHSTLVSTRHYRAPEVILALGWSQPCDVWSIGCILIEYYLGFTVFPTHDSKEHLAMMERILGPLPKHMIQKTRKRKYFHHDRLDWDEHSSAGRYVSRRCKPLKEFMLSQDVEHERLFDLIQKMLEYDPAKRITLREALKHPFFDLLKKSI
# UniProt Q9NPF2: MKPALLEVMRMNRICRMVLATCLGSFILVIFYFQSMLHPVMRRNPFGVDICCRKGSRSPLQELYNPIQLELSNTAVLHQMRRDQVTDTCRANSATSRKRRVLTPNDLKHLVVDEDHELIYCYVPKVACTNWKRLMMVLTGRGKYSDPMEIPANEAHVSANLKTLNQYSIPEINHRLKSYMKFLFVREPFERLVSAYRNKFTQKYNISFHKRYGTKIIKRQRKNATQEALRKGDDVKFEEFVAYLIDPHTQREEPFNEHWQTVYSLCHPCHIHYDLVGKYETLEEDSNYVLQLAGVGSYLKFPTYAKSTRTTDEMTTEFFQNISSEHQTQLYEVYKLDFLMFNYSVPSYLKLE
# UniProt Q8TD26: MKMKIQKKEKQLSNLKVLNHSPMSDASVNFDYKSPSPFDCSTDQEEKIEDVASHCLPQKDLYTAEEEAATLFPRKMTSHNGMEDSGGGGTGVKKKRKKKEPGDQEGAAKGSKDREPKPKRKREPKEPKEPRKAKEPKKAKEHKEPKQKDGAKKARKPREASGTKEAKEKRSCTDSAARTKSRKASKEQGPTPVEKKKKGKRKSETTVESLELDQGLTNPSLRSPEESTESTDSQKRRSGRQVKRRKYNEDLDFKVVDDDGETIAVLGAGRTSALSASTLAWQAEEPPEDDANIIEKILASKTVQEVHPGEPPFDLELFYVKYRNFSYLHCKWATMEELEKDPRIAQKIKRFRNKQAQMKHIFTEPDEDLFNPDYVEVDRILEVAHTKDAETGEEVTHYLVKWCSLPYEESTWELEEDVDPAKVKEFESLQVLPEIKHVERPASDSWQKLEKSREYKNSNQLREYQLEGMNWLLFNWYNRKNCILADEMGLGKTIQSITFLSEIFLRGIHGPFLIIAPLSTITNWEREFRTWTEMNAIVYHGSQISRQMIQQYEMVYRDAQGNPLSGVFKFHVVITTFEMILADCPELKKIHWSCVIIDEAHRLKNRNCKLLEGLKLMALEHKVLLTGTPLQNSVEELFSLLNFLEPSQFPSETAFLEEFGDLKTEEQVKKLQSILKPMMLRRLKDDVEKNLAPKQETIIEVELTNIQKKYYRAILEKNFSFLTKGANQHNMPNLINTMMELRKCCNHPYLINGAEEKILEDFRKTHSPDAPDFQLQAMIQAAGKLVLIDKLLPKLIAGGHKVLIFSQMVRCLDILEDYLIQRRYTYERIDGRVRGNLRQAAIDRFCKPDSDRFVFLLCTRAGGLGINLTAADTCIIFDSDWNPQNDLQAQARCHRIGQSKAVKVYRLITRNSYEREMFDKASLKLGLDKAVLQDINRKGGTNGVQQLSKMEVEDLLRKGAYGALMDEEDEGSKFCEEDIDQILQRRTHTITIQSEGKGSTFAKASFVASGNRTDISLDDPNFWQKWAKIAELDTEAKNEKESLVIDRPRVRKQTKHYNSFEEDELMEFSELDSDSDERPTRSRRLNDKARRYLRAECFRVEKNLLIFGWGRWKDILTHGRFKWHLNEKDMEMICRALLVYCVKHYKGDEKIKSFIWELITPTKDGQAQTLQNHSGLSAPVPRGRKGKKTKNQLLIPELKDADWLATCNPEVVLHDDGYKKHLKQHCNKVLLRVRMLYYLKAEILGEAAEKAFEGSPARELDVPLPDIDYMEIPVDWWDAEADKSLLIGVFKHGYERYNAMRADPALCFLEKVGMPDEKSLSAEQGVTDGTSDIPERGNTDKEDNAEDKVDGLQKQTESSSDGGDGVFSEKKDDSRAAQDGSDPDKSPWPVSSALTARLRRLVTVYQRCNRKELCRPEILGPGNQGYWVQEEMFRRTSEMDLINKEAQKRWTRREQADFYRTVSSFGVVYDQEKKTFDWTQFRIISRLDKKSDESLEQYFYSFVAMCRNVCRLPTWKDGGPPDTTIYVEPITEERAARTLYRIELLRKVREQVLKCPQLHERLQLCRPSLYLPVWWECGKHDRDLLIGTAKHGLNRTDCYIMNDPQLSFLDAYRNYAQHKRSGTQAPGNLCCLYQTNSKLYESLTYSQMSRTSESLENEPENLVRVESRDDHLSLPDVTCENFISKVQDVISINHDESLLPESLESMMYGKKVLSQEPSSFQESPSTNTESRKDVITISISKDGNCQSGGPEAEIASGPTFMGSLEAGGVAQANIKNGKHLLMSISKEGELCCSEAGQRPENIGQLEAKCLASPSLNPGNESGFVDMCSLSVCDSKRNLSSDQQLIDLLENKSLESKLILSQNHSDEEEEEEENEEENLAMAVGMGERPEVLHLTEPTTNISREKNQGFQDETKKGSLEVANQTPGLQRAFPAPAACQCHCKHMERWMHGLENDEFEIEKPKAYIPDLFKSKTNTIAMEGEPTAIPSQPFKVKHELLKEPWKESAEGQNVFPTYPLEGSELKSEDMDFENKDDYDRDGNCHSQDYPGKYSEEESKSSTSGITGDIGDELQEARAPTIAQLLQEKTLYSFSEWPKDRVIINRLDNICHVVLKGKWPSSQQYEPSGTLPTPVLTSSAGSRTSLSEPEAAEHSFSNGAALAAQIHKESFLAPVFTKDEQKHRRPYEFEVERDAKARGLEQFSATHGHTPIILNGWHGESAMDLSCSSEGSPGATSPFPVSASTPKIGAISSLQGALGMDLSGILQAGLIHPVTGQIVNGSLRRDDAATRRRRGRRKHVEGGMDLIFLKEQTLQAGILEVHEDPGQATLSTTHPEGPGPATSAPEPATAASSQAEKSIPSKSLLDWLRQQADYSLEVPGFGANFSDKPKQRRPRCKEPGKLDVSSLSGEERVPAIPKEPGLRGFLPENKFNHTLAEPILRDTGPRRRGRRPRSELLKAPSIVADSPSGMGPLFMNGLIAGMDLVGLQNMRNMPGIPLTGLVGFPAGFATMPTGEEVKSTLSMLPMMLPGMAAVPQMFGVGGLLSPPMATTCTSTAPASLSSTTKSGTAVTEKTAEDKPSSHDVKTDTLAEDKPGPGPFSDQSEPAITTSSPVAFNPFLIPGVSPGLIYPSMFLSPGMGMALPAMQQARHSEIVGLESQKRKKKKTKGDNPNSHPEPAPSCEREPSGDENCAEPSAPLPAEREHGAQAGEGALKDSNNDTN
# UniProt Q99967: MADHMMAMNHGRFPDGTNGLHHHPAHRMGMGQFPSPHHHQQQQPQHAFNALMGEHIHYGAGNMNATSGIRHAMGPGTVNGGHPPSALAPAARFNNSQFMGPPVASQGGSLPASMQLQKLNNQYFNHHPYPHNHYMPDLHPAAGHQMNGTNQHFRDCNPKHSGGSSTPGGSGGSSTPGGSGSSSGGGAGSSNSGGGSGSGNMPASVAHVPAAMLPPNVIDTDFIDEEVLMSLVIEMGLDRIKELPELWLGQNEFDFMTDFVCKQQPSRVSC
# The list shows a part of the results.
# What was measured:
# Assay in all cases: log2 fold change, soluble protein after heating vs DMSO (PISA); higher = thermal stabilisation; K562 lysate, 10 uM; active = over 0.2 and 3.5 SD of the protein, either way, in both replicates (recomputed)
# lapatinib = compound: CS(=O)(=O)CCNCc1ccc(-c2ccc3ncnc(Nc4ccc(OCc5cccc(F)c5)c(Cl)c4)c3c2)o1 [lapatinib]
# In short: (§1)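 Log-two fold change in thermal stability relative to solvent controls is reported from duplicates. For each sample, crude K562 extract from dounce-homogenised pellets in PBS pH 7.4 with 1 mM MgCl2, at 1 mg/mL protein, was treated with 10 μM compound for 30 min. Aliquots heated for 3 min across 48°C-58°C were pooled, brought to 0.5% NP-40 at 4°C and cleared at 21,000xg for 90 min. The supernatant was quantified by TMTpro 16plex LC-MS/MS with channel sums equalised.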
# crizotinib = compound: C[C@@H](Oc1cc(-c2cnn(C3CCNCC3)c2)cnc1N)c1c(Cl)ccc(F)c1Cl [crizotinib]
# In short: as §1
# [1] = compound: C[C@H](C1=CC=C(C=C1)C(=O)NC2=C3C=CNC3=NC=C2)N
# In short: as §1
# duvelisib = compound: C[C@H](Nc1ncnc2nc[nH]c12)c1cc2cccc(Cl)c2c(=O)n1-c1ccccc1 [duvelisib]
# In short: as §1
# gandotinib = compound: Cc1cc(Nc2cc(CN3CCOCC3)c3nc(C)c(Cc4ccc(Cl)cc4F)n3n2)n[nH]1 [gandotinib]
# In short: as §1
# tozasertib = compound: Cc1cc(Nc2cc(N3CCN(C)CC3)nc(Sc3ccc(NC(=O)C4CC4)cc3)n2)n[nH]1 [tozasertib]
# In short: as §1
# doramapimod = compound: Cc1ccc(-n2nc(C(C)(C)C)cc2NC(=O)Nc2ccc(OCCN3CCOCC3)c3ccccc23)cc1 [doramapimod]
# In short: as §1
# bafetinib = compound: Cc1ccc(NC(=O)c2ccc(CN3CC[C@H](N(C)C)C3)c(C(F)(F)F)c2)cc1Nc1nccc(-c2cncnc2)n1 [bafetinib]
# In short: as §1
# [2] = compound: Cc1cccc(CC(=O)N2CCc3c2ccc(-c2cn(C)c4ncnc(N)c24)c3F)n1
# In short: as §1
# pictilisib = compound: CS(=O)(=O)N1CCN(Cc2cc3nc(-c4cccc5[nH]ncc45)nc(N4CCOCC4)c3s2)CC1 [pictilisib]
# In short: as §1
Target,log2 fold change (lapatinib),log2 fold change (crizotinib),log2 fold change [1],log2 fold change (duvelisib),log2 fold change (gandotinib),log2 fold change (tozasertib),log2 fold change (doramapimod),log2 fold change (bafetinib),log2 fold change [2],log2 fold change (pictilisib)
CLIC2 (UniProt O15247),inactive: -0.057,inactive: -0.002,inactive: -0.037,inactive: -0.039,inactive: -0.015,inactive: -0.016,inactive: -0.022,inactive: -0.009,inactive: 0.005,
CLIP1 isoform 1 (UniProt P30622),inactive: 0.006,inactive: 0.023,inactive: -0.023,inactive: 0.004,inactive: 0.036,inactive: 0.001,inactive: 0.011,inactive: -0.003,inactive: -0.01,
CLSTN1 (UniProt O94985),inactive: -0.496,inactive: -0.005,inactive: 0.186,,inactive: 0.307,inactive: 0.436,inactive: 0.06,,inactive: 0.151,
CISD3 (UniProt P0C7P0),inactive: 0.05,inactive: 0.026,inactive: -0.027,inactive: 0.042,inactive: 0.055,inactive: 0.035,inactive: 0.082,,inactive: 0.028,
CLIP4 (UniProt Q8N3C7),inactive: 0.035,inactive: -0.047,inactive: -0.124,,inactive: 0.051,inactive: 0.072,inactive: 0.074,inactive: -0.018,inactive: -0.006,
CLCN3 isoform 2 (UniProt P51790),inactive: 0.047,inactive: -0.047,inactive: -0.075,inactive: 0.034,inactive: -0.018,inactive: -0.011,inactive: 0.026,inactive: -0.005,inactive: 0.024,
CLASP2 (UniProt O75122),inactive: 0.003,inactive: 0.127,inactive: -0.086,,inactive: -0.031,inactive: 0.052,inactive: -0.001,inactive: -0.199,inactive: 0.067,
CLTA (UniProt P09496),inactive: -0.015,inactive: 0.117,inactive: 0.023,inactive: 0.019,inactive: 0.011,inactive: 0.011,inactive: 0.019,inactive: 0.019,inactive: -0.016,
CIR1 (UniProt Q86X95),inactive: 0.05,inactive: 0.061,,inactive: -0.1,,inactive: 0.033,inactive: 0.035,,,
CLIC6 (UniProt Q96NY7),inactive: 0.135,inactive: -0.056,inactive: -0.2,inactive: -0.026,inactive: 0.094,inactive: -0.009,inactive: 0.004,inactive: -0.059,inactive: 0.036,
CMTM4 (UniProt Q8IZR5),inactive: -0.159,inactive: -0.009,inactive: -0.071,,inactive: 0.037,,inactive: -0.107,,inactive: -0.024,
CLPTM1 (UniProt O96005),inactive: 0.034,inactive: 0.005,inactive: -0.07,inactive: -0.038,inactive: 0.033,inactive: -0.005,inactive: -0.068,inactive: -0.053,inactive: 0.083,
CLIC1 (UniProt O00299),inactive: 0.004,inactive: 0.007,inactive: 0.01,inactive: -0.011,inactive: -0.01,inactive: -0.011,inactive: 0.002,inactive: 0.028,inactive: 0.003,
CHST10 (UniProt O43529),,,inactive: 0.004,,inactive: -0.038,,,,inactive: 0.06,
CLN3 (UniProt Q13286),inactive: 0.073,,,inactive: -0.025,,,,inactive: -0.164,,
CLDN7 (UniProt O95471),,,,,,inactive: 0.105,,,,
CMC4 (UniProt P56277),inactive: 0.006,inactive: 0.003,,,,,inactive: -0.237,,,
CLK2 (UniProt P49760),inactive: 0.004,inactive: -0.037,,inactive: -0.11,,,inactive: 0.011,,,
CHST14 (UniProt Q8NCH0),,inactive: -0.034,inactive: -0.031,inactive: 0.005,inactive: 0.006,,inactive: 0.113,,inactive: 0.035,
"CHD4, A0A2R8Y521",inactive: 0.025,,,inactive: 0.006,,inactive: 0.081,,,,
CLK1 isoform 3 (UniProt P49759),inactive: -0.102,,inactive: -0.13,,inactive: 0.208,inactive: 0.079,,inactive: -0.103,inactive: 0.231,

# In a second layout: results already given
Target	log2 fold change (lapatinib)	log2 fold change (crizotinib)	log2 fold change [1]	log2 fold change (duvelisib)	log2 fold change (gandotinib)	log2 fold change (tozasertib)	log2 fold change (doramapimod)	log2 fold change (bafetinib)	log2 fold change [2]	log2 fold change (pictilisib)
CLTA (UniProt P09496)	inactive: -0.015	inactive: 0.117	inactive: 0.023	inactive: 0.019	inactive: 0.011	inactive: 0.011	inactive: 0.019	inactive: 0.019	inactive: -0.016	
CLN3 (UniProt Q13286)	inactive: 0.073			inactive: -0.025				inactive: -0.164		
CHD4, A0A2R8Y521	inactive: 0.025			inactive: 0.006		inactive: 0.081				

# Following part:

Target,log2 fold change (lapatinib),log2 fold change (crizotinib),log2 fold change [1],log2 fold change (duvelisib),log2 fold change (gandotinib),log2 fold change (tozasertib),log2 fold change (doramapimod),log2 fold change (bafetinib),log2 fold change [2],log2 fold change (pictilisib)
CLU isoform 2 (UniProt P10909),,,inactive: 0.049,,inactive: -0.087,,,,inactive: 0.315,
CKAP2L (UniProt Q8IYA6),,inactive: 0.03,inactive: -0.056,inactive: -0.327,inactive: 0.056,inactive: 0.137,inactive: -0.057,,inactive: -0.029,
CHMP2A (UniProt M0R1T5),,,inactive: 0.128,,inactive: 0.033,,,,inactive: -0.062,
CLN6 (UniProt Q9NWW5),,inactive: 0.015,,inactive: -0.106,,inactive: 0.023,inactive: -0.057,inactive: 0.013,,
CLCN6 isoform 5 (UniProt P51797),inactive: -0.048,inactive: 0.03,,inactive: -0.008,,inactive: -0.023,inactive: 0.039,inactive: -0.062,,
CHST11 (UniProt Q9NPF2),,inactive: 0.01,inactive: -0.037,inactive: -0.026,inactive: 0.046,inactive: -0.009,inactive: -0.006,inactive: -0.05,inactive: 0.062,inactive: -0.058
CLN5 (UniProt O75503),inactive: 0.178,,inactive: -0.1,,inactive: -0.026,inactive: -0.068,,inactive: -0.06,inactive: -0.022,
CHPF (UniProt Q8IZ52),,inactive: -0.082,inactive: -0.079,inactive: -0.074,inactive: -0.007,inactive: 0.069,inactive: 0.082,inactive: 0.071,inactive: 0.174,inactive: -0.048
"CLIP1, A0A3B3ITA2",,inactive: -0.033,inactive: -0.222,,inactive: 0.55,,inactive: -0.138,,inactive: 0.269,
CLTA isoform 2 (UniProt P09496),inactive: -0.054,inactive: 0.128,,inactive: -0.109,,inactive: 0.13,inactive: 0.041,inactive: -0.114,,
CHD9 (UniProt Q3L8U1),,inactive: 0.055,active: 1.37,inactive: 0.106,inactive: -0.111,,inactive: -0.057,,inactive: -0.27,
CIC (UniProt I3L1Q4),,,,,,,,inactive: 0.021,,inactive: 0.065
CKS2 (UniProt P33552),,,inactive: 0.089,,inactive: -0.169,inactive: 0.158,,,inactive: -0.091,
CHPT1 (UniProt Q8WUD6),,,inactive: 0.259,,inactive: -0.238,,,inactive: 0.04,inactive: -0.166,inactive: -0.012
CHPF2 (UniProt Q9P2E5),,inactive: 0.007,,inactive: 0.067,,inactive: 0.185,inactive: 0.015,,,
CHD6 (UniProt Q8TD26),,inactive: -0.016,inactive: 0.018,inactive: 0.096,inactive: -0.04,inactive: 0.072,inactive: -0.002,inactive: 0.132,inactive: -0.078,inactive: -0.229
CITED2 (UniProt Q99967),,,,inactive: -0.016,,,,,,
CHURC1-FNTB (UniProt B4DL54),,inactive: -0.061,inactive: -0.24,,inactive: 0.07,inactive: 0.033,inactive: 0.365,,inactive: 0.151,
CLUAP1 (UniProt I3L2E1),inactive: -0.087,inactive: -0.554,,,,inactive: -0.115,inactive: 0.079,inactive: -0.025,,
CHCHD5 (UniProt Q9BSY4),,inactive: 0.097,inactive: 0.213,inactive: -0.066,inactive: -0.088,,inactive: -0.163,,inactive: 0.063,
CLINT1 (UniProt Q14677),,inactive: 0.019,inactive: 0.004,inactive: -0.019,inactive: 0.187,inactive: -0.037,inactive: 0.226,inactive: -0.055,inactive: 0.077,
